The list shows a part of the results.
Key:
Test in all cases: log2 fold change, soluble protein after heating vs DMSO (PISA); higher = thermal stabilisation; K562 cells, 10 uM, 30 min; active = over 0.2 and 3.5 SD of the protein, either way, in both replicates (recomputed)
[1] = compound: CC[C@@H]1C(=O)N(C)c2cnc(Nc3ccc(C(=O)NC4CCN(C)CC4)cc3OC)nc2N1C1CCCC1
Procedure, shortened: (§1)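 K562 cells at 2×10^6 cells/mL were treated for 30 min with 10 μM compound, and aliquots were heated for 3 min over 48°C-58°C before pooling. Extraction used PBS with 0.5% NP-40 at 4°C, and soluble protein was the supernatant after 21,000xg for 90 min, measured by TMTpro 16plex LC-MS/MS with channel sums equalised. Thermal stability values, relative to control samples and from duplicates, are log2 fold changes.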

By UniProt entry, the sequences of proteins in these tests, tags left out. Where a name states a change or a piece, a line headed by the entry shows the natural chain unless it says otherwise.
UniProt Q9UBW8: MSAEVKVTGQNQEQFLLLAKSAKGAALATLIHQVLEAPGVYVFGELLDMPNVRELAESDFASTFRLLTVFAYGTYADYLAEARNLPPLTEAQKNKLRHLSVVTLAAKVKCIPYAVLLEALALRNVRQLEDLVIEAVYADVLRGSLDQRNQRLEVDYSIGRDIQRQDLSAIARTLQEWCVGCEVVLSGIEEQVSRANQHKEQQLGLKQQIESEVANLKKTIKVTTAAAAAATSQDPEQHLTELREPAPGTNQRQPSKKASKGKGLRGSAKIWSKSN
UniProt O14548: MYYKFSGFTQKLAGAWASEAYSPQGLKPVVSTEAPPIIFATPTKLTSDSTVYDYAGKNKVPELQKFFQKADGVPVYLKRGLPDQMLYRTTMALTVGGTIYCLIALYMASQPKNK
UniProt Q9P021, whole entry, looked up: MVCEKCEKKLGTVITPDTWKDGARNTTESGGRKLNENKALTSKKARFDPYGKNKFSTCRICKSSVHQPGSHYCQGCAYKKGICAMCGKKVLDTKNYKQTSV
UniProt Q99627: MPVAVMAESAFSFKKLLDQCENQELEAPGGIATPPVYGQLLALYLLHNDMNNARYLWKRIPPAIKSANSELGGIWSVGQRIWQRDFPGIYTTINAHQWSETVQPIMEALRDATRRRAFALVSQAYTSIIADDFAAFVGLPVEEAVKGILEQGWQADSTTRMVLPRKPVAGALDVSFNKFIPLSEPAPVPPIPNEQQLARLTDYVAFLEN
UniProt P14854, whole entry, looked up: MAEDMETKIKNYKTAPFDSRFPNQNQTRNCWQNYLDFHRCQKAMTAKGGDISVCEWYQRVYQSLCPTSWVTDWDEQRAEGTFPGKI
UniProt Q86VX2, whole entry, looked up: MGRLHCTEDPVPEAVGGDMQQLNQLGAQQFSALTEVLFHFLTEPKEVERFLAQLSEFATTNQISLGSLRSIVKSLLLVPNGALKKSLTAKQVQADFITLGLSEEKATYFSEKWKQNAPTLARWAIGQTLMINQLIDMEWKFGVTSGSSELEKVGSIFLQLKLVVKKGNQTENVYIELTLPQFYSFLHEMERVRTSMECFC
UniProt Q96I36: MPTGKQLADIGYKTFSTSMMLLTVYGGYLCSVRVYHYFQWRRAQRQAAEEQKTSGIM
UniProt P31327: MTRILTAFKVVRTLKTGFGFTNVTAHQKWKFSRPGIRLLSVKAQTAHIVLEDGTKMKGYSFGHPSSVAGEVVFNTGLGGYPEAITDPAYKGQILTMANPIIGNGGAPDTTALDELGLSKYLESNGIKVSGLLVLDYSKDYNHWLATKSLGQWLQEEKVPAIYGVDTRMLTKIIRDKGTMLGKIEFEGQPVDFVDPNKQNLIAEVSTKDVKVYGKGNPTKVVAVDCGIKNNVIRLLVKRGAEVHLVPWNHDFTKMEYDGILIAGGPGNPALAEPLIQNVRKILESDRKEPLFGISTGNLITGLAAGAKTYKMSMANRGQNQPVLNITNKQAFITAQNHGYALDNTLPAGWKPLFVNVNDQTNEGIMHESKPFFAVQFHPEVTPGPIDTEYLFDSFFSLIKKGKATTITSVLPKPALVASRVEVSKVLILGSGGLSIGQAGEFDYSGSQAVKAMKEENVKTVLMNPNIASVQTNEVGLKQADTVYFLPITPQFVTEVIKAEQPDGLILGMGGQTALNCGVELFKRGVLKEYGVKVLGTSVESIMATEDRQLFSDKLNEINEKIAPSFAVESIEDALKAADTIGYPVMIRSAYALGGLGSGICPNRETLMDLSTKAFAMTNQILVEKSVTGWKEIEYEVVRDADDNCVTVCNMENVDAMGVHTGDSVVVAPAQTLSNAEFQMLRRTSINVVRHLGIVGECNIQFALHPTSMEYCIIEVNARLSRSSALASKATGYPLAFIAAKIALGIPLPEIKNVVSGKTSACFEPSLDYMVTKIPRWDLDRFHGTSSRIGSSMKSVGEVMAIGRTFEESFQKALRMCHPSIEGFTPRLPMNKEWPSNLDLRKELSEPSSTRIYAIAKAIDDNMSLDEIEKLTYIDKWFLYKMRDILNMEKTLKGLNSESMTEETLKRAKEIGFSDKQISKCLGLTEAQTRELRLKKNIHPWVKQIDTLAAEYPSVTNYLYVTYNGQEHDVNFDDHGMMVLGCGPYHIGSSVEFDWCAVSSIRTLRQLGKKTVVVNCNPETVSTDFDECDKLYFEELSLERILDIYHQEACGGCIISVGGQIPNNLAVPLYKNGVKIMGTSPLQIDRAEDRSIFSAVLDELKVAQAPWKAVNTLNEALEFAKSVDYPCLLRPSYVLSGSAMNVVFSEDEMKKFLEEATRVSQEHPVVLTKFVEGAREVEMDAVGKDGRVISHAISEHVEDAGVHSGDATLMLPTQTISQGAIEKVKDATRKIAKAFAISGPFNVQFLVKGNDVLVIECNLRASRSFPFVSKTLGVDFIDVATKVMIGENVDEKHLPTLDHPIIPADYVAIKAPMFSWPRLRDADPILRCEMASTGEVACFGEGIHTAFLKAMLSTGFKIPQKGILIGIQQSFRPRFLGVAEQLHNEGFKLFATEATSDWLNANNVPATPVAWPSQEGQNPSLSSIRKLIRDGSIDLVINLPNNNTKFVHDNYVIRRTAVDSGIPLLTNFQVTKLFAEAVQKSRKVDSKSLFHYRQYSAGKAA
UniProt Q03060: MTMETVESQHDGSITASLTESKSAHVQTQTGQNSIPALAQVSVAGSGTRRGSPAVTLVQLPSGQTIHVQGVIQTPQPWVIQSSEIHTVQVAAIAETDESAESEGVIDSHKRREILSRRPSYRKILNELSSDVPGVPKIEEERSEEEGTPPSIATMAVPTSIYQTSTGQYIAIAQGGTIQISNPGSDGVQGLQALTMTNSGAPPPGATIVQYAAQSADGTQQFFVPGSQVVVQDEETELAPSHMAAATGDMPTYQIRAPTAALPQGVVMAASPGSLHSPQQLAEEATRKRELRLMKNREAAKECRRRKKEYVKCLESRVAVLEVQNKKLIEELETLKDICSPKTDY
UniProt Q49B96: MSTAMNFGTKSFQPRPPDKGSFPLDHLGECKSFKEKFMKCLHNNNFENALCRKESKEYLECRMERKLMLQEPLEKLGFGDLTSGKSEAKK
UniProt P52943: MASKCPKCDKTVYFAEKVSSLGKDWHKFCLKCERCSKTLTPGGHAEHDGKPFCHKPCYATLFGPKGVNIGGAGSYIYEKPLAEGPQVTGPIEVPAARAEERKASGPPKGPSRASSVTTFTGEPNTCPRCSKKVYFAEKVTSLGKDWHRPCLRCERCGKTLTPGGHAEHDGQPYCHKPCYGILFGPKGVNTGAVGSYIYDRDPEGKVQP
UniProt Q8NI60: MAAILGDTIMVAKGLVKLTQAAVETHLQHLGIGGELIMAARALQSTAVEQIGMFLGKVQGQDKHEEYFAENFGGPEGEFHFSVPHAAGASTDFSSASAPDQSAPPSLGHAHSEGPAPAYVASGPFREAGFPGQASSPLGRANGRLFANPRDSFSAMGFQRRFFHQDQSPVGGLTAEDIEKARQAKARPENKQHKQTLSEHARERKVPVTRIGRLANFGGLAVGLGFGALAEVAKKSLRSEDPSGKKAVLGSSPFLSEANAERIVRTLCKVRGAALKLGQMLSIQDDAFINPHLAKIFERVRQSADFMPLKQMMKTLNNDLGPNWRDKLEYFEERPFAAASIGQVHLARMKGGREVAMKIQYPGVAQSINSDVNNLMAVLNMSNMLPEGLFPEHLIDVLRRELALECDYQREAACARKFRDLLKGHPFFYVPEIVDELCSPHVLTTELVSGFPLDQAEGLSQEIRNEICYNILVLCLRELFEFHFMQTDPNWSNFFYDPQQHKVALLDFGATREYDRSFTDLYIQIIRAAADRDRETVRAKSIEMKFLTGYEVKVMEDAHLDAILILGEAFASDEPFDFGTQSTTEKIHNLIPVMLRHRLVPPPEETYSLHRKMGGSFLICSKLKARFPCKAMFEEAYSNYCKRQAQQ
UniProt O75131: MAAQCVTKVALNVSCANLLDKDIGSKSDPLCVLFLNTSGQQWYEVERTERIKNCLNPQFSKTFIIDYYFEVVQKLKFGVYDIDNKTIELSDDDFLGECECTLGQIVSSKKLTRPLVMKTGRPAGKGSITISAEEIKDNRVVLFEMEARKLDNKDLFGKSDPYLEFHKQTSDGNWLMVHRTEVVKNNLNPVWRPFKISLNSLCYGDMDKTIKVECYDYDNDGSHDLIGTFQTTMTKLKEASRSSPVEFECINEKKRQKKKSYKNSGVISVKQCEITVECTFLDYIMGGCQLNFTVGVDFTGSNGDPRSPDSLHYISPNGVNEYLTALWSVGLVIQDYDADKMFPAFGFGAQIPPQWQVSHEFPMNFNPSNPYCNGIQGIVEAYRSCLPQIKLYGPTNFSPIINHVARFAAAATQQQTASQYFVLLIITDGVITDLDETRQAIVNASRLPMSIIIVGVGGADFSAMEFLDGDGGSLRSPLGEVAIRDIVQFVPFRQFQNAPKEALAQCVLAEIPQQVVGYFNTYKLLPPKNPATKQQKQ
UniProt Q9H9Q2: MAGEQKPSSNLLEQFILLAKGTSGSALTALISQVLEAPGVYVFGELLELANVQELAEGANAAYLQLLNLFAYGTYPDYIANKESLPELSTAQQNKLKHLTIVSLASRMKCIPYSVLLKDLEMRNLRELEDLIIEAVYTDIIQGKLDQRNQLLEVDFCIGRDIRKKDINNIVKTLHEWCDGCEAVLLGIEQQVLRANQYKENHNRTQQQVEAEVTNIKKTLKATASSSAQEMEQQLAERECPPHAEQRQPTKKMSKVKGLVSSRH
UniProt Q96FN4: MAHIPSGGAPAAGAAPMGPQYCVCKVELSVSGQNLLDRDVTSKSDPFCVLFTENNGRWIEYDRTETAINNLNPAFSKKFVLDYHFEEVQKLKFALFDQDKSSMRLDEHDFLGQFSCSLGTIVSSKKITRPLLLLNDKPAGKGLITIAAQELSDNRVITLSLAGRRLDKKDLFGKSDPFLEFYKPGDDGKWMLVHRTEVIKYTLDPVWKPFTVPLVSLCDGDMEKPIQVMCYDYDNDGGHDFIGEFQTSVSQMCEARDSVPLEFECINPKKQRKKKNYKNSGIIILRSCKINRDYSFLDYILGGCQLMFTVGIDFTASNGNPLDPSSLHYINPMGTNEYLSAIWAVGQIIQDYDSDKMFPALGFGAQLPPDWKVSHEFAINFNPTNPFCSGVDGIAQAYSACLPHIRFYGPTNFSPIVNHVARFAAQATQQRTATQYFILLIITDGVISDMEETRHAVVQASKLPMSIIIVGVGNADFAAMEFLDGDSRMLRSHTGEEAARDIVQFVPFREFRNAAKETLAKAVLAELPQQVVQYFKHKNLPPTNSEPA
UniProt P61201: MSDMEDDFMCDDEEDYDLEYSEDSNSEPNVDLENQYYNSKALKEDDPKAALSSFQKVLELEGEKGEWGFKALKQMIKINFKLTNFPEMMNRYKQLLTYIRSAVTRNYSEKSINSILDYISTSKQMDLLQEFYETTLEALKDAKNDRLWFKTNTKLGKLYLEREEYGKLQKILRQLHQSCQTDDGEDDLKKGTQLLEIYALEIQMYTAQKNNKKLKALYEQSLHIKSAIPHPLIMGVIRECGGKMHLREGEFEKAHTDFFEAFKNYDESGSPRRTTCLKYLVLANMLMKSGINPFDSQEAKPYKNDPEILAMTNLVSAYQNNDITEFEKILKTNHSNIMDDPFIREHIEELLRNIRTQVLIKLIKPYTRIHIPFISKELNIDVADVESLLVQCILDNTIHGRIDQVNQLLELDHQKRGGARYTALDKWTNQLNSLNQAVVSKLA
UniProt Q9Y678: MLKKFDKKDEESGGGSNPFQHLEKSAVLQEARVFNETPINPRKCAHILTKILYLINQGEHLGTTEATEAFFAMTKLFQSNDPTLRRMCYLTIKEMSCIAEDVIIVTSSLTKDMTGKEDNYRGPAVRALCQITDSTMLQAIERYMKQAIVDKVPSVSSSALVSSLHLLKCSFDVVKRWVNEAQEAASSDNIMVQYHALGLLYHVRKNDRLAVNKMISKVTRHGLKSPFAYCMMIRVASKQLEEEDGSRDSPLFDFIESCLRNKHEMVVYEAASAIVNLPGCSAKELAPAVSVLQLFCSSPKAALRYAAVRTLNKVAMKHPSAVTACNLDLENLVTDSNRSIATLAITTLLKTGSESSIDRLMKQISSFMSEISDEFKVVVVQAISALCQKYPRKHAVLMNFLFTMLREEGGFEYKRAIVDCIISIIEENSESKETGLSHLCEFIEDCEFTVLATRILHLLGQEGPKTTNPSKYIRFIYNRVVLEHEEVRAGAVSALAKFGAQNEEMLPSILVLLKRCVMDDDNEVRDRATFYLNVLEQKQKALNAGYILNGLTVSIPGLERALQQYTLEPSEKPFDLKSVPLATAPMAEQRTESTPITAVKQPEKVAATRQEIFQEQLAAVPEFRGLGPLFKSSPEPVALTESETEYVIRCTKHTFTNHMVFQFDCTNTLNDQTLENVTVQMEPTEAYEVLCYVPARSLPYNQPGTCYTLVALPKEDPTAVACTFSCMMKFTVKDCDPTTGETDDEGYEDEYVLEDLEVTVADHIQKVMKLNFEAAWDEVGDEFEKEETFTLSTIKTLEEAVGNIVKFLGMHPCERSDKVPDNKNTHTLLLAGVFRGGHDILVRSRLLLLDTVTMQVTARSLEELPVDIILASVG
UniProt P09669, whole entry, looked up: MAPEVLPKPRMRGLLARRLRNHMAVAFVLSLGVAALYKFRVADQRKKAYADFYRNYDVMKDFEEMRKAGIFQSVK

volasertib = compound: CC[C@@H]1C(=O)N(C)c2cnc(Nc3ccc(C(=O)N[C@H]4CC[C@H](N5CCN(CC6CC6)CC5)CC4)cc3OC)nc2N1C(C)C [volasertib]
Procedure, shortened: as §1

[2] = compound: CC[C@H](C)N1C=C(C2=C(C=C(C=C21)C3=CN=C(C=C3)N4CCNCC4)C(=O)NCC5=C(C=C(NC5=O)C)C)C
Procedure, shortened: as §1

epoxomicin = compound: CC[C@H](C)[C@@H](C(=O)N[C@@H]([C@@H](C)O)C(=O)N[C@@H](CC(C)C)C(=O)[C@]1(CO1)C)NC(=O)[C@H]([C@@H](C)CC)N(C)C(=O)C [epoxomicin]
Procedure, shortened: as §1

[3] = compound: CCn1c(C(=O)N(C2CC2)C2CC2)cc2c3c(ncn3C)c(Nc3cc(C)n(C)n3)nc21
Procedure, shortened: as §1

[4] = compound: CCn1cc(-c2ccnc3[nH]c(-c4cccc(CN(C)C)c4)cc23)c(-c2ccc(NC(=O)N(C)C)cc2)n1
Procedure, shortened: as §1

[5] = compound: CN(C)CC(=O)Nc1ccc2[nH]c(=O)c3ccccc3c2c1
Procedure, shortened: as §1

rosiglitazone = compound: CN(CCOC1=CC=C(C=C1)C[C@H]2C(=O)NC(=O)S2)C3=CC=CC=N3 (racemic) [rosiglitazone]
Procedure, shortened: as §1

[6] = compound: CN1C2=C(C3=C1C(=O)N(N=C3)CC4=CC(=CC=C4)N)SC(=C2)S(=O)C
Procedure, shortened: as §1

[7] = compound: CN1CCC(CNc2ccc3ncc(-c4cccc(OC(F)(F)F)c4)n3n2)CC1
Procedure, shortened: as §1

Target	log2 fold change [1]	log2 fold change (volasertib)	log2 fold change [2]	log2 fold change (epoxomicin)	log2 fold change [3]	log2 fold change [4]	log2 fold change [5]	log2 fold change (rosiglitazone)	log2 fold change [6]	log2 fold change [7]
CRBN (UniProt Q96SW2)	inactive: 0.008	inactive: 0.005	inactive: 0.004	inactive: 0.046	inactive: -0.102	inactive: -0.025	inactive: -0.019	inactive: -0.001	inactive: -0.011	inactive: -0.013
CRELD2 isoform 5 (UniProt Q6UXH1)	inactive: 0.08	inactive: 0.013	inactive: -0.039	inactive: 0.048	inactive: 0.022	inactive: -0.029	inactive: -0.011	inactive: -0.017	inactive: 0.005	inactive: 0.129
COTL1 (UniProt Q14019)	inactive: 0.009	inactive: -0.019	inactive: 0.022	inactive: 0.011	inactive: 0.018	inactive: -0.02	inactive: 0	inactive: 0.029	inactive: -0.088	inactive: -0.06
COPS7A (UniProt Q9UBW8)	inactive: 0.008	inactive: 0.024	inactive: 0.011	inactive: 0.001	inactive: -0.01	inactive: -0.091	inactive: -0.011	inactive: 0	inactive: -0.054	inactive: 0.011
CRELD1 isoform 2 (UniProt Q96HD1)	inactive: 0.167	inactive: 0.025	inactive: -0.243	inactive: -0.17	inactive: -0.137	inactive: -0.091	inactive: -0.183	inactive: 0.115	inactive: -0.009	inactive: 0.087
COX7A2L (UniProt O14548)	inactive: -0.036	inactive: 0.04	inactive: -0.032	inactive: 0.144	inactive: 0.048	inactive: -0.029	inactive: -0.025	inactive: 0.002	inactive: 0.056	inactive: 0.022
COLGALT2 (UniProt Q8IYK4)	inactive: 0.072	inactive: 0.013	inactive: -0.009	inactive: -0.019	inactive: 0.049	inactive: 0.108	inactive: -0.084	inactive: -0.017	inactive: 0.043	inactive: 0.163
CRIPT (UniProt Q9P021)	inactive: 0.104	inactive: 0.112	inactive: 0.011	inactive: 0.086	inactive: 0.024	inactive: 0.068	inactive: 0.029	inactive: 0.019	inactive: 0.054	inactive: -0.015
COPS8 (UniProt Q99627)	inactive: -0.018	inactive: 0.043	inactive: 0.032	inactive: -0.047	–	inactive: 0.013	inactive: 0.033	–	inactive: 0.011	inactive: 0.113
COQ3 (UniProt Q9NZJ6)	inactive: 0.022	inactive: -0.028	inactive: 0.003	inactive: 0.006	inactive: -0.112	inactive: -0.104	inactive: -0.06	inactive: 0.077	inactive: -0.017	inactive: -0.154
COX6B1 (UniProt P14854)	inactive: 0.036	inactive: 0.023	inactive: -0.013	inactive: 0.333	–	inactive: -0.014	inactive: -0.081	–	inactive: -0.054	inactive: 0.038
COMMD7 (UniProt Q86VX2)	inactive: 0.003	inactive: -0.169	inactive: -0.049	inactive: -0.005	inactive: -0.01	inactive: -0.036	inactive: 0.051	inactive: 0.055	inactive: -0.018	inactive: -0.099
COX14 (UniProt Q96I36)	inactive: -0.028	inactive: -0.043	inactive: -0.048	inactive: 0.375	inactive: 0.044	inactive: 0.055	–	inactive: -0.209	–	inactive: 0.126
COX7B (UniProt P24311)	inactive: -0.011	inactive: 0.024	inactive: -0.052	inactive: 0.023	–	inactive: -0.035	inactive: 0.04	–	inactive: 0.015	active: 0.323
CPS1 isoform 3 (UniProt P31327)	inactive: 0.13	inactive: 0.067	inactive: -0.001	inactive: 0.011	inactive: -0.051	inactive: 0.011	inactive: -0.066	inactive: 0.069	inactive: -0.014	inactive: -0.043
CROCC (UniProt Q5TZA2)	inactive: 0.005	inactive: 0.027	inactive: -0.001	inactive: -0.022	inactive: -0.104	inactive: -0.016	inactive: 0.035	inactive: 0.027	inactive: -0.046	inactive: 0.03

For reference, some entries already given:
Target	log2 fold change [1]	log2 fold change (volasertib)	log2 fold change [2]	log2 fold change (epoxomicin)	log2 fold change [3]	log2 fold change [4]	log2 fold change [5]	log2 fold change (rosiglitazone)	log2 fold change [6]	log2 fold change [7]
COLGALT2 (UniProt Q8IYK4)	inactive: 0.072	inactive: 0.013	inactive: -0.009	inactive: -0.019	inactive: 0.049	inactive: 0.108	inactive: -0.084	inactive: -0.017	inactive: 0.043	inactive: 0.163
CRIPT (UniProt Q9P021)	inactive: 0.104	inactive: 0.112	inactive: 0.011	inactive: 0.086	inactive: 0.024	inactive: 0.068	inactive: 0.029	inactive: 0.019	inactive: 0.054	inactive: -0.015

Further records

Target	log2 fold change [1]	log2 fold change (volasertib)	log2 fold change [2]	log2 fold change (epoxomicin)	log2 fold change [3]	log2 fold change [4]	log2 fold change [5]	log2 fold change (rosiglitazone)	log2 fold change [6]	log2 fold change [7]
CREM isoform 1 (UniProt Q03060)	inactive: 0.045	inactive: 0.006	inactive: 0.056	inactive: -0.025	inactive: 0.06	inactive: -0.111	inactive: -0.052	inactive: 0.022	inactive: -0.109	inactive: 0.095
COX4I1 (UniProt P13073)	inactive: 0.015	inactive: 0.042	inactive: -0.046	inactive: -0.029	inactive: 0.042	inactive: -0.003	inactive: -0.007	inactive: 0.004	inactive: -0.04	inactive: 0.073
COX19 (UniProt Q49B96)	inactive: 0.021	inactive: 0.091	inactive: 0.006	inactive: 0.01	inactive: 0.049	inactive: 0.02	inactive: -0.032	inactive: 0.047	inactive: -0.028	inactive: -0.07
CRIP2 isoform 2 (UniProt P52943)	inactive: 0.066	inactive: -0.16	inactive: -0.048	inactive: -0.074	inactive: 0.025	–	inactive: -0.034	inactive: -0.019	–	–
CPQ (UniProt Q9Y646)	inactive: -0.144	active: -0.27	inactive: -0.036	inactive: 0.062	–	inactive: -0.039	inactive: -0.021	–	inactive: 0.032	inactive: -0.035
COQ8A (UniProt Q8NI60)	inactive: -0.063	inactive: -0.186	inactive: -0.023	inactive: 0.038	inactive: 0.166	inactive: -0.074	inactive: 0.009	inactive: 0.009	inactive: -0.179	inactive: -0.049
CPNE3 (UniProt O75131)	inactive: -0.005	inactive: -0.119	inactive: 0.016	inactive: 0.02	inactive: -0.007	inactive: -0.048	inactive: -0.016	inactive: -0.004	inactive: -0.069	inactive: 0.103
COPS7B (UniProt Q9H9Q2)	inactive: -0.043	inactive: 0.018	inactive: 0.033	inactive: 0.076	inactive: -0.011	inactive: 0.035	inactive: 0.002	inactive: 0	inactive: -0.089	inactive: -0.007
CPSF2 (UniProt Q9P2I0)	inactive: -0.001	inactive: -0.025	inactive: -0.021	inactive: -0.009	inactive: -0.064	inactive: -0.023	inactive: 0.041	inactive: 0.23	inactive: -0.014	inactive: -0.071
COX15 (UniProt Q7KZN9)	inactive: 0.057	inactive: 0.023	inactive: -0.037	inactive: -0.018	–	inactive: 0.021	inactive: 0.006	–	inactive: -0.044	inactive: -0.015
CPNE2 (UniProt Q96FN4)	inactive: 0.053	inactive: -0.127	inactive: 0.096	inactive: 0.063	inactive: -0.014	inactive: 0.074	inactive: 0	inactive: -0.006	inactive: 0.115	inactive: 0.098
CREBBP (UniProt Q92793)	inactive: 0	inactive: -0.024	inactive: 0.086	inactive: 0.055	inactive: -0.043	inactive: -0.124	inactive: 0.045	inactive: 0.073	inactive: -0.067	inactive: 0.05
COPS2 (UniProt P61201)	inactive: -0.009	inactive: -0.084	inactive: 0.028	inactive: 0.033	inactive: 0.028	inactive: -0.019	inactive: 0.002	inactive: 0.025	inactive: -0.093	inactive: -0.057
COPG1 (UniProt Q9Y678)	inactive: -0.019	inactive: -0.112	inactive: 0.021	inactive: 0	inactive: -0.031	inactive: -0.029	inactive: 0.002	inactive: 0.009	inactive: -0.016	inactive: -0.004
COX6C (UniProt P09669)	inactive: -0.138	inactive: 0.031	inactive: -0.035	inactive: -0.034	inactive: 0.022	inactive: 0.002	inactive: -0.006	inactive: 0.016	inactive: -0.029	inactive: -0.011

Source: the supplement of paper PMC10849652
